Reference: publication doi:10.1101/2025.09.17.676845
No constants are given. Whether binding was seen depends on the method and setting. Binding seen in cells or lysates may run through a third protein. These calls come from enrichment with a bait or labelling near it, and not all partners need be listed.

By UniProt entry, the sequences of proteins in these tests, tags left out.
UniProt Q13283: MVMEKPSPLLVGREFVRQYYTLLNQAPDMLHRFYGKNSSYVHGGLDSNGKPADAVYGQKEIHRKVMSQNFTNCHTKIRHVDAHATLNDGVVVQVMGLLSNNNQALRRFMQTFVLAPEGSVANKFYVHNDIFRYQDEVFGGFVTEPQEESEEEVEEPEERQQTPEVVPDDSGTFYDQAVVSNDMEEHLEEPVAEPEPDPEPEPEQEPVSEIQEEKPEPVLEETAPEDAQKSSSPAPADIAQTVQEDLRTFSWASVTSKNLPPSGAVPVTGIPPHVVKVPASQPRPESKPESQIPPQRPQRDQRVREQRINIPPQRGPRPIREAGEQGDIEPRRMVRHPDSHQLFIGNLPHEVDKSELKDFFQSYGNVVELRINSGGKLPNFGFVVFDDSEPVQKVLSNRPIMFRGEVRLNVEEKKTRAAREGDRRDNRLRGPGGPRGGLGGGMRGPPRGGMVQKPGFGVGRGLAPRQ
UniProt P60228: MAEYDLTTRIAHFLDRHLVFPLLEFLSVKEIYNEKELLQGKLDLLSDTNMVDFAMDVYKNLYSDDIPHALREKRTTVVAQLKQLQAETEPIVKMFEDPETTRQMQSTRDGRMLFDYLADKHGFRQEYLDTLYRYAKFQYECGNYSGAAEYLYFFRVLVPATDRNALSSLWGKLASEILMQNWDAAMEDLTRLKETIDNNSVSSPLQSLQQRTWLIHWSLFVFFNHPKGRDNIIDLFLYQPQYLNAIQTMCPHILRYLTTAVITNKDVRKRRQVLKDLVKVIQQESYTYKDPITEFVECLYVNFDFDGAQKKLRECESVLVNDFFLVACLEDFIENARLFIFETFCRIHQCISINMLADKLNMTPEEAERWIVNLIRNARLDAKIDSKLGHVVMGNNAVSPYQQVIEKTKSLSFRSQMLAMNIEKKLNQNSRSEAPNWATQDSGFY
UniProt O75821: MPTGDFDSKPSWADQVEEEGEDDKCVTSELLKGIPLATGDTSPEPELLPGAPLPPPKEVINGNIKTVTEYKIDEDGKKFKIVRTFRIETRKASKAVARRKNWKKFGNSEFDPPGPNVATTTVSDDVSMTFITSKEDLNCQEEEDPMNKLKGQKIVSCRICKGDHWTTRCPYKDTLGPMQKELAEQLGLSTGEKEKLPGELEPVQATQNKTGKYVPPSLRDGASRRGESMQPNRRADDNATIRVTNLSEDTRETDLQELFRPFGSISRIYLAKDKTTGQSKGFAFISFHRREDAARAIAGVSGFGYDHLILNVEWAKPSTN
UniProt Q9Y520: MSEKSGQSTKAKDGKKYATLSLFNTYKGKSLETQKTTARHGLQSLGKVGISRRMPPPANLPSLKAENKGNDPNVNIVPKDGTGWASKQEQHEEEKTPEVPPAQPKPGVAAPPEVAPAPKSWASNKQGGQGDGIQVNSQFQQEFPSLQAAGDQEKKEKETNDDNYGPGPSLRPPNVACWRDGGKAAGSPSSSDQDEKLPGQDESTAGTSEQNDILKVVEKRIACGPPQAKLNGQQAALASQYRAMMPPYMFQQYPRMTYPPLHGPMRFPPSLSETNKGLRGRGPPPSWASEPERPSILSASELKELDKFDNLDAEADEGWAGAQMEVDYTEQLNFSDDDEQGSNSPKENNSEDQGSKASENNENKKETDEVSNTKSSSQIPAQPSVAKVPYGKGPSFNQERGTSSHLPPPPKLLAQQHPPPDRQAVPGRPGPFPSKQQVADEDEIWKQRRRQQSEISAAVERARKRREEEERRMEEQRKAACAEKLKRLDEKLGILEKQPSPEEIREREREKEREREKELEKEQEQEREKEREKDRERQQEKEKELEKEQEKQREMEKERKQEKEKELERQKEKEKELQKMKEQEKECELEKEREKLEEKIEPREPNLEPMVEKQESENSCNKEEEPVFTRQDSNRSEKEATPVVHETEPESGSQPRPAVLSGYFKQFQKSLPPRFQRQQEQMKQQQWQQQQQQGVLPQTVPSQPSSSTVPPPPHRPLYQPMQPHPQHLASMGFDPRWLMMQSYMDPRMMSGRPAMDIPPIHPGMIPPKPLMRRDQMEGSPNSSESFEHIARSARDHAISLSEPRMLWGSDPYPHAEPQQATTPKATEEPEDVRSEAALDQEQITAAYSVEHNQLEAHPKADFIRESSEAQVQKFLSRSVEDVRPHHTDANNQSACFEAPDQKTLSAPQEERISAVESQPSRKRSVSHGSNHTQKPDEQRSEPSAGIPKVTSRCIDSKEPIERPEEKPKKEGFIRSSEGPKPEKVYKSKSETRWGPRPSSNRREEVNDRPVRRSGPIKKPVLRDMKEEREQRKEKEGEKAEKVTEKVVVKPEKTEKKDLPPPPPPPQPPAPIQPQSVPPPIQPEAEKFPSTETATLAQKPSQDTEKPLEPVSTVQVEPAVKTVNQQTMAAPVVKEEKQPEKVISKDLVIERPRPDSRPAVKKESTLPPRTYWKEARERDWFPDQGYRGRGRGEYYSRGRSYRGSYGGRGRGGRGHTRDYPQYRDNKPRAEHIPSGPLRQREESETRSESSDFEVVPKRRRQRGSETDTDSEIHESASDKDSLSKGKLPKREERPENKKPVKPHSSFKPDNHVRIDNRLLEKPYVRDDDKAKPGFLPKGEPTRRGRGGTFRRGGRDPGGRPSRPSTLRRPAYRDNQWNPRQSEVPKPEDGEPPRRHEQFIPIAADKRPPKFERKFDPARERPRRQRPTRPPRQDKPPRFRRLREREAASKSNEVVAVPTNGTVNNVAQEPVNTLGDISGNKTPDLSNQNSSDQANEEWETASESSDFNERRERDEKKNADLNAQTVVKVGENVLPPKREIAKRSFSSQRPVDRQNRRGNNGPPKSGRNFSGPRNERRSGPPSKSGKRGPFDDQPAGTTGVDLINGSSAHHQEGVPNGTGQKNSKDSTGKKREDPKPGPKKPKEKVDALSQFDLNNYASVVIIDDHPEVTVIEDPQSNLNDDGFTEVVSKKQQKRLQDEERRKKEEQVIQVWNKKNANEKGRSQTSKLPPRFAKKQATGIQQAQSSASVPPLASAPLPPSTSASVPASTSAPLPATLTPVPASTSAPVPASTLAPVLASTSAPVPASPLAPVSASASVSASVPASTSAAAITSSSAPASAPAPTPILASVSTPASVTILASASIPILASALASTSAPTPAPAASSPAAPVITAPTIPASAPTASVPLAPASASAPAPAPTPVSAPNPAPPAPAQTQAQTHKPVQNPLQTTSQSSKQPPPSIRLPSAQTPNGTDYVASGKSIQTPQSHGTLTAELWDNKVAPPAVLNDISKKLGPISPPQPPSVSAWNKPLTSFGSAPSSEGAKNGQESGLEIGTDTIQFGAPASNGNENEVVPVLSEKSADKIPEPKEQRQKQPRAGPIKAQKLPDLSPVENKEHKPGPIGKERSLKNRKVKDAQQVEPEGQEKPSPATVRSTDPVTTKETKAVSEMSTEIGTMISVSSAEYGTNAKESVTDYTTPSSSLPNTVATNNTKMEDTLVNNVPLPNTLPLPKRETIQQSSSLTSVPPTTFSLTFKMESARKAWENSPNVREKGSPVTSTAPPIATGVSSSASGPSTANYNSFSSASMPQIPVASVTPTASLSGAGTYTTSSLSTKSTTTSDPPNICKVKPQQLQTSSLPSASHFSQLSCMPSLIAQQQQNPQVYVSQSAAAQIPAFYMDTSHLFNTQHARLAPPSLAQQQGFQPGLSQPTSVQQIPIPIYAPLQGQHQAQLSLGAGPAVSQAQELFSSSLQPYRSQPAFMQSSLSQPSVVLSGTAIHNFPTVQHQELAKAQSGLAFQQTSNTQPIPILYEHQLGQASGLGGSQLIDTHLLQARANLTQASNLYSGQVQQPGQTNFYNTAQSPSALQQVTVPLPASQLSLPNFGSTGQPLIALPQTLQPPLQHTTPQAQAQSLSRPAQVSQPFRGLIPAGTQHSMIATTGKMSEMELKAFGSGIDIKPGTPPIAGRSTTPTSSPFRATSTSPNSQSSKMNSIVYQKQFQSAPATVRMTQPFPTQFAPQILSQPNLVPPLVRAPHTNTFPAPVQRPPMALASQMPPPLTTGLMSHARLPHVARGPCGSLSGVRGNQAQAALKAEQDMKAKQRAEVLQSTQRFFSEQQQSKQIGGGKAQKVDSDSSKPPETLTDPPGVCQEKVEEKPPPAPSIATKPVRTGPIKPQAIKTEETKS
UniProt Q14157: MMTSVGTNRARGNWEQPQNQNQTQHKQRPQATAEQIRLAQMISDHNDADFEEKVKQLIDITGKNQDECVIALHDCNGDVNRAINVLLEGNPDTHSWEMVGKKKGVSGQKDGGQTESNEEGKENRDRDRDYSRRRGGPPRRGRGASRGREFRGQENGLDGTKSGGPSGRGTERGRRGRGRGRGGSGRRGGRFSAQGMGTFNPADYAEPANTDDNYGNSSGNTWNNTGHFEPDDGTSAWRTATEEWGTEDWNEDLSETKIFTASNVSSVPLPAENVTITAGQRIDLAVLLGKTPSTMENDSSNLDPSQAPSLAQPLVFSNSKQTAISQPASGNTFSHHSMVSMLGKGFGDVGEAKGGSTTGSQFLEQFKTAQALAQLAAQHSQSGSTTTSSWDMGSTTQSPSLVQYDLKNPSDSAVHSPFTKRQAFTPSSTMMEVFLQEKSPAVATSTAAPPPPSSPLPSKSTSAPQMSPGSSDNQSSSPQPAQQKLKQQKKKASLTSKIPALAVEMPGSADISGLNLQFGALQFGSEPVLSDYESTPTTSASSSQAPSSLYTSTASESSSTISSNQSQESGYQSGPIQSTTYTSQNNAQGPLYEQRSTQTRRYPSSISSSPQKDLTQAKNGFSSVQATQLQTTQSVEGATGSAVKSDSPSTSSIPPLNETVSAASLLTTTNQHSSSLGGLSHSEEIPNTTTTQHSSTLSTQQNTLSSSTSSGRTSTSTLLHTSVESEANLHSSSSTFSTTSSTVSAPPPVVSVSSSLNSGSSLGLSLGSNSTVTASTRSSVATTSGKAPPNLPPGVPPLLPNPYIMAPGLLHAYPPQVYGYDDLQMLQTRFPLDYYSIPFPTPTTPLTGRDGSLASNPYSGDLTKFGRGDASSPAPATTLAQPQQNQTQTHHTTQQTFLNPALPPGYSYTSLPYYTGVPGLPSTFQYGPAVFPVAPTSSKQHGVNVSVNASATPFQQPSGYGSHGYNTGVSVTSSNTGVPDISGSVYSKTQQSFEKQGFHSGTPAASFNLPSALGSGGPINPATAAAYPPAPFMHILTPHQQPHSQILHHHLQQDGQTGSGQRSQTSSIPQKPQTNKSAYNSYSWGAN

B1: ATXN2L (protein, UniProt Q8WWM7 1-1075)
chain: MLKPQPLQQPSQPQQPPPTQQAVARRPPGGTSPPNGGLPGPLATSAAPPGPPAAASPCLGPVAAAGSGLRRGAEGILAPQPPPPQQHQERPGAAAIGSARGQSTGKGPPQSPVFEGVYNNSRMLHFLTAVVGSTCDVKVKNGTTYEGIFKTLSSKFELAVDAVHRKASEPAGGPRREDIVDTMVFKPSDVMLVHFRNVDFNYATKDKFTDSAIAMNSKVNGEHKEKVLQRWEGGDSNSDDYDLESDMSNGWDPNEMFKFNEENYGVKTTYDSSLSSYTVPLEKDNSEEFRQRELRAAQLAREIESSPQYRLRIAMENDDGRTEEEKHSAVQRQGSGRESPSLASREGKYIPLPQRVREGPRGGVRCSSSRGGRPGLSSLPPRGPHHLDNSSPGPGSEARGINGGPSRMSPKAQRPLRGAKTLSSPSNRPSGETSVPPPPAVGRMYPPRSPKSAAPAPISASCPEPPIGSAVPTSSASIPVTSSVSDPGVGSISPASPKISLAPTDVKELSTKEPGRTLEPQELARIAGKVPGLQNEQKRFQLEELRKFGAQFKLQPSSSPENSLDPFPPRILKEEPKGKEKEVDGLLTSEPMGSPVSSKTESVSDKEDKPPLAPSGGTEGPEQPPPPCPSQTGSPPVGLIKGEDKDEGPVAEQVKKSTLNPNAKEFNPTKPLLSVNKSTSTPTSPGPRTHSTPSIPVLTAGQSGLYSPQYISYIPQIHMGPAVQAPQMYPYPVSNSVPGQQGKYRGAKGSLPPQRSDQHQPASAPPMMQAAAAAGPPLVAATPYSSYIPYNPQQFPGQPAMMQPMAHYPSQPVFAPMLQSNPRMLTSGSHPQAIVSSSTPQYPSAEQPTPQALYATVHQSYPHHATQLHAHQPQPATTPTGSQPQSQHAAPSPVQHQAGQAPHLGSGQPQQNLYHPGALTGTPPSLPPGPSAQSPQSSFPQPAAVYAIHHQQLPHGFTNMAHVTQAHVQTGITAAPPPHPGAPHPPQVMLLHPPQSHGGPPQGAVPQSGVPALSASTPSPYPYIGHPQGEQPGQAPGFPGGADDRIREFSLAGGIWHGRAEGLQVGQDARVLGGE
B2: TIAL1 (protein, UniProt Q01085 1-375)
chain: MMEDDGQPRTLYVGNLSRDVTEVLILQLFSQIGPCKSCKMITEHTSNDPYCFVEFYEHRDAAAALAAMNGRKILGKEVKVNWATTPSSQKKDTSNHFHVFVGDLSPEITTEDIKSAFAPFGKISDARVVKDMATGKSKGYGFVSFYNKLDAENAIVHMGGQWLGGRQIRTNWATRKPPAPKSTQENNTKQLRFEDVVNQSSPKNCTVYCGGIASGLTDQLMRQTFSPFGQIMEIRVFPEKGYSFVRFSTHESAAHAIVSVNGTTIEGHVVKCYWGKESPDMTKNFQQVDYSQWGQWSQVYGNPQQYGQYMANGWQVPPYGVYGQPWNQQGFGVDQSPSAAWMGGFGAQPPQGQAPPPVIPPPNQAGYGMASYQTQ
B3: NUFIP2 (protein, UniProt Q7Z417 1-695)
chain: MEEKPGQPQPQHHHSHHHPHHHPQQQQQQPHHHHHYYFYNHSHNHHHHHHHQQPHQYLQHGAEGSPKAQPKPLKHEQKHTLQQHQETPKKKTGYGELNGNAGEREISLKNLSSDEATNPISRVLNGNQQVVDTSLKQTVKANTFGKAGIKTKNFIQKNSMDKKNGKSYENKSGENQSVDKSDTIPIPNGVVTNNSGYITNGYMGKGADNDGSGSESGYTTPKKRKARRNSAKGCENLNIVQDKIMQQETSVPTLKQGLETFKPDYSEQKGNRVDGSKPIWKYETGPGGTSRGKPAVGDMLRKSSDSKPGVSSKKFDDRPKGKHASAVASKEDSWTLFKPPPVFPVDNSSAKIVPKISYASKVKENLNKTIQNSSVSPTSSSSSSSSTGETQTQSSSRLSQVPMSALKSVTSANFSNGPVLAGTDGNVYPPGGQPLLTTAANTLTPISSGTDSVLQDMSLTSAAVEQIKTSLFIYPSNMQTMLLSTAQVDLPSQTDQQNLGDIFQNQWGLSFINEPSAGPETVTGKSSEHKVMEVTFQGEYPATLVSQGAEIIPSGTEHPVFPKAYELEKRTSPQVLGSILKSGTTSESGALSLEPSHIGDLQKADTSSQGALVFLSKDYEIESQNPLASPTNTLLGSAKEQRYQRGLERNDSWGSFDLRAAIVYHTKEMESIWNLQKQDPKRIITYNEAMDSPDQ

molecular target: APEX2-tagged WT G3BP1 (human) (UniProt Q13283); assay: proximity labelling

binding, binds:
EIF3E (from UniProt P60228 1-445)
EIF3G (from UniProt O75821 1-320)
PRRC2C (from UniProt Q9Y520 1-2896)
UBAP2L (from UniProt Q14157 1-1087)
B1
B2
B3
